Experimental data from article doi:10.1101/471045.
No constants are given. Whether binding was seen depends on the method and setting. Binding seen in cells or lysates may run through a third protein. Some results given as binding are weak or reduced against the parent protein; the word gives no strength.

Key:
[1] = target: HPV16 E7 (WT), Flag and HA epitope tagged (human papillomavirus 16) (UniProt P03129); experiment: co-IP
[2] = target: HPV16 E7 E10K variant, Flag and HA epitope tagged (human papillomavirus 16) (UniProt P03129); experiment: co-IP

B1: retinoblastoma tumor suppressor (RB1) (protein, UniProt P06400 1-928)
chain: MPPKTPRKTAATAAAAAAEPPAPPPPPPPEEDPEQDSGPEDLPLVRLEFEETEEPDFTALCQKLKIPDHVRERAWLTWEKVSSVDGVLGGYIQKKKELWGICIFIAAVDLDEMSFTFTELQKNIEISVHKFFNLLKEIDTSTKVDNAMSRLLKKYDVLFALFSKLERTCELIYLTQPSSSISTEINSALVLKVSWITFLLAKGEVLQMEDDLVISFQLMLCVLDYFIKLSPPMLLKEPYKTAVIPINGSPRTPRRGQNRSARIAKQLENDTRIIEVLCKEHECNIDEVKNVYFKNFIPFMNSLGLVTSNGLPEVENLSKRYEEIYLKNKDLDARLFLDHDKTLQTDSIDSFETQRTPRKSNLDEEVNVIPPHTPVRTVMNTIQQLMMILNSASDQPSENLISYFNNCTVNPKESILKRVKDIGYIFKEKFAKAVGQGCVEIGSQRYKLGVRLYYRVMESMLKSEEERLSIQNFSKLLNDNIFHMSLLACALEVVMATYSRSTSQNLDSGTDLSFPWILNVLNLKAFDFYKVIESFIKAEGNLTREMIKHLERCEHRIMESLAWLSDSPLFDLIKQSKDREGPTDHLESACPLNLPLQNNHTAADMYLSPVRSPKKKGSTTRVNSTANAETQATSAFQTQKPLKSTSLSLFYKKVYRLAYLRLNTLCERLLSEHPELEHIIWTLFQHTLQNEYELMRDRHLDQIMMCSMYGICKVKNIDLKFKIIVTAYKDLPHAVQETFKRVLIKEEEYDSIIVFYNSVFMQRLKTNILQYASTRPPTLSPIPHIPRSPYKFPSSPLRIPGGNIYISPLKSPYKISEGLPTPTKMTPRSRILVSIGESFGTSEKFQKINQMVCNSDRVLKRSAEGSNPPKPLKKLRFDIEGSDEADGSKHLPGESKFQQKLAEMTSTRTRMQKQKMNDSMDTSNKEEK
With B1 the binding [1] was “binds” and the binding [2] was “binds”.
